We go through 27 targets from the supplement of paper PMC7666118.

Sequences of proteins named here, by UniProt entry; tags and fusion partners are left off. A change or cut given only in a name is not applied to a line headed by its entry.
UniProt O00264: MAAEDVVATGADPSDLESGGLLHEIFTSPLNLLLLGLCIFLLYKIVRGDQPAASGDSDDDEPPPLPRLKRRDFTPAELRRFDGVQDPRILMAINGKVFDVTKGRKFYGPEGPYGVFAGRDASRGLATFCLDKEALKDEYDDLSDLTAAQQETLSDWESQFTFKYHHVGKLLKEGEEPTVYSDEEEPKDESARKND
UniProt P36873, whole entry, looked up: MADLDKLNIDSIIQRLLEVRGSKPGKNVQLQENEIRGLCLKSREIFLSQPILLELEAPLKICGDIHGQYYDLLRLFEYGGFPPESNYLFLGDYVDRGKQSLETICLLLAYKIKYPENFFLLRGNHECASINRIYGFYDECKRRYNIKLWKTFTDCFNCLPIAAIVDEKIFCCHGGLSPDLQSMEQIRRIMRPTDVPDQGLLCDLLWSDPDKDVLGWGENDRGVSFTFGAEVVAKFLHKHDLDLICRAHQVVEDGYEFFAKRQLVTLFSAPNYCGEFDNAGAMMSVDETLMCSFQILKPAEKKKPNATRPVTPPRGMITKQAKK
UniProt P05771, whole entry, looked up: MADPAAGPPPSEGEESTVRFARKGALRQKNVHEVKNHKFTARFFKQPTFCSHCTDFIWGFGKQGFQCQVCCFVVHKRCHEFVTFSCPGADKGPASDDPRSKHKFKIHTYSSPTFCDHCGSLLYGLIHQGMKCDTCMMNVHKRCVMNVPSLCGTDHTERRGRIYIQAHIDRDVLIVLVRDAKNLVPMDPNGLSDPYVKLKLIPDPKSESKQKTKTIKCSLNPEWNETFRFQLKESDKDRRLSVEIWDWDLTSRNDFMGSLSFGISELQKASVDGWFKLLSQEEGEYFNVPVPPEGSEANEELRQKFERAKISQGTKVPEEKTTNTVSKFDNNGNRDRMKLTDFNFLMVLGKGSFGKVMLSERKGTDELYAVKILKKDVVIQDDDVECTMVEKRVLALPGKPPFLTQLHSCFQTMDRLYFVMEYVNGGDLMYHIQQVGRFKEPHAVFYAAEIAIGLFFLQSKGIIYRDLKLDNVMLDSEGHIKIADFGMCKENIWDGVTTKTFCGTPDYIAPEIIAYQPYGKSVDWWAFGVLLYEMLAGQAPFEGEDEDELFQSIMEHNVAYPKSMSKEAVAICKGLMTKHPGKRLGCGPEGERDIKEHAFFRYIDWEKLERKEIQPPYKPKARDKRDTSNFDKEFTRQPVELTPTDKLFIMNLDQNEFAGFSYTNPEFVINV
UniProt P78527, whole entry: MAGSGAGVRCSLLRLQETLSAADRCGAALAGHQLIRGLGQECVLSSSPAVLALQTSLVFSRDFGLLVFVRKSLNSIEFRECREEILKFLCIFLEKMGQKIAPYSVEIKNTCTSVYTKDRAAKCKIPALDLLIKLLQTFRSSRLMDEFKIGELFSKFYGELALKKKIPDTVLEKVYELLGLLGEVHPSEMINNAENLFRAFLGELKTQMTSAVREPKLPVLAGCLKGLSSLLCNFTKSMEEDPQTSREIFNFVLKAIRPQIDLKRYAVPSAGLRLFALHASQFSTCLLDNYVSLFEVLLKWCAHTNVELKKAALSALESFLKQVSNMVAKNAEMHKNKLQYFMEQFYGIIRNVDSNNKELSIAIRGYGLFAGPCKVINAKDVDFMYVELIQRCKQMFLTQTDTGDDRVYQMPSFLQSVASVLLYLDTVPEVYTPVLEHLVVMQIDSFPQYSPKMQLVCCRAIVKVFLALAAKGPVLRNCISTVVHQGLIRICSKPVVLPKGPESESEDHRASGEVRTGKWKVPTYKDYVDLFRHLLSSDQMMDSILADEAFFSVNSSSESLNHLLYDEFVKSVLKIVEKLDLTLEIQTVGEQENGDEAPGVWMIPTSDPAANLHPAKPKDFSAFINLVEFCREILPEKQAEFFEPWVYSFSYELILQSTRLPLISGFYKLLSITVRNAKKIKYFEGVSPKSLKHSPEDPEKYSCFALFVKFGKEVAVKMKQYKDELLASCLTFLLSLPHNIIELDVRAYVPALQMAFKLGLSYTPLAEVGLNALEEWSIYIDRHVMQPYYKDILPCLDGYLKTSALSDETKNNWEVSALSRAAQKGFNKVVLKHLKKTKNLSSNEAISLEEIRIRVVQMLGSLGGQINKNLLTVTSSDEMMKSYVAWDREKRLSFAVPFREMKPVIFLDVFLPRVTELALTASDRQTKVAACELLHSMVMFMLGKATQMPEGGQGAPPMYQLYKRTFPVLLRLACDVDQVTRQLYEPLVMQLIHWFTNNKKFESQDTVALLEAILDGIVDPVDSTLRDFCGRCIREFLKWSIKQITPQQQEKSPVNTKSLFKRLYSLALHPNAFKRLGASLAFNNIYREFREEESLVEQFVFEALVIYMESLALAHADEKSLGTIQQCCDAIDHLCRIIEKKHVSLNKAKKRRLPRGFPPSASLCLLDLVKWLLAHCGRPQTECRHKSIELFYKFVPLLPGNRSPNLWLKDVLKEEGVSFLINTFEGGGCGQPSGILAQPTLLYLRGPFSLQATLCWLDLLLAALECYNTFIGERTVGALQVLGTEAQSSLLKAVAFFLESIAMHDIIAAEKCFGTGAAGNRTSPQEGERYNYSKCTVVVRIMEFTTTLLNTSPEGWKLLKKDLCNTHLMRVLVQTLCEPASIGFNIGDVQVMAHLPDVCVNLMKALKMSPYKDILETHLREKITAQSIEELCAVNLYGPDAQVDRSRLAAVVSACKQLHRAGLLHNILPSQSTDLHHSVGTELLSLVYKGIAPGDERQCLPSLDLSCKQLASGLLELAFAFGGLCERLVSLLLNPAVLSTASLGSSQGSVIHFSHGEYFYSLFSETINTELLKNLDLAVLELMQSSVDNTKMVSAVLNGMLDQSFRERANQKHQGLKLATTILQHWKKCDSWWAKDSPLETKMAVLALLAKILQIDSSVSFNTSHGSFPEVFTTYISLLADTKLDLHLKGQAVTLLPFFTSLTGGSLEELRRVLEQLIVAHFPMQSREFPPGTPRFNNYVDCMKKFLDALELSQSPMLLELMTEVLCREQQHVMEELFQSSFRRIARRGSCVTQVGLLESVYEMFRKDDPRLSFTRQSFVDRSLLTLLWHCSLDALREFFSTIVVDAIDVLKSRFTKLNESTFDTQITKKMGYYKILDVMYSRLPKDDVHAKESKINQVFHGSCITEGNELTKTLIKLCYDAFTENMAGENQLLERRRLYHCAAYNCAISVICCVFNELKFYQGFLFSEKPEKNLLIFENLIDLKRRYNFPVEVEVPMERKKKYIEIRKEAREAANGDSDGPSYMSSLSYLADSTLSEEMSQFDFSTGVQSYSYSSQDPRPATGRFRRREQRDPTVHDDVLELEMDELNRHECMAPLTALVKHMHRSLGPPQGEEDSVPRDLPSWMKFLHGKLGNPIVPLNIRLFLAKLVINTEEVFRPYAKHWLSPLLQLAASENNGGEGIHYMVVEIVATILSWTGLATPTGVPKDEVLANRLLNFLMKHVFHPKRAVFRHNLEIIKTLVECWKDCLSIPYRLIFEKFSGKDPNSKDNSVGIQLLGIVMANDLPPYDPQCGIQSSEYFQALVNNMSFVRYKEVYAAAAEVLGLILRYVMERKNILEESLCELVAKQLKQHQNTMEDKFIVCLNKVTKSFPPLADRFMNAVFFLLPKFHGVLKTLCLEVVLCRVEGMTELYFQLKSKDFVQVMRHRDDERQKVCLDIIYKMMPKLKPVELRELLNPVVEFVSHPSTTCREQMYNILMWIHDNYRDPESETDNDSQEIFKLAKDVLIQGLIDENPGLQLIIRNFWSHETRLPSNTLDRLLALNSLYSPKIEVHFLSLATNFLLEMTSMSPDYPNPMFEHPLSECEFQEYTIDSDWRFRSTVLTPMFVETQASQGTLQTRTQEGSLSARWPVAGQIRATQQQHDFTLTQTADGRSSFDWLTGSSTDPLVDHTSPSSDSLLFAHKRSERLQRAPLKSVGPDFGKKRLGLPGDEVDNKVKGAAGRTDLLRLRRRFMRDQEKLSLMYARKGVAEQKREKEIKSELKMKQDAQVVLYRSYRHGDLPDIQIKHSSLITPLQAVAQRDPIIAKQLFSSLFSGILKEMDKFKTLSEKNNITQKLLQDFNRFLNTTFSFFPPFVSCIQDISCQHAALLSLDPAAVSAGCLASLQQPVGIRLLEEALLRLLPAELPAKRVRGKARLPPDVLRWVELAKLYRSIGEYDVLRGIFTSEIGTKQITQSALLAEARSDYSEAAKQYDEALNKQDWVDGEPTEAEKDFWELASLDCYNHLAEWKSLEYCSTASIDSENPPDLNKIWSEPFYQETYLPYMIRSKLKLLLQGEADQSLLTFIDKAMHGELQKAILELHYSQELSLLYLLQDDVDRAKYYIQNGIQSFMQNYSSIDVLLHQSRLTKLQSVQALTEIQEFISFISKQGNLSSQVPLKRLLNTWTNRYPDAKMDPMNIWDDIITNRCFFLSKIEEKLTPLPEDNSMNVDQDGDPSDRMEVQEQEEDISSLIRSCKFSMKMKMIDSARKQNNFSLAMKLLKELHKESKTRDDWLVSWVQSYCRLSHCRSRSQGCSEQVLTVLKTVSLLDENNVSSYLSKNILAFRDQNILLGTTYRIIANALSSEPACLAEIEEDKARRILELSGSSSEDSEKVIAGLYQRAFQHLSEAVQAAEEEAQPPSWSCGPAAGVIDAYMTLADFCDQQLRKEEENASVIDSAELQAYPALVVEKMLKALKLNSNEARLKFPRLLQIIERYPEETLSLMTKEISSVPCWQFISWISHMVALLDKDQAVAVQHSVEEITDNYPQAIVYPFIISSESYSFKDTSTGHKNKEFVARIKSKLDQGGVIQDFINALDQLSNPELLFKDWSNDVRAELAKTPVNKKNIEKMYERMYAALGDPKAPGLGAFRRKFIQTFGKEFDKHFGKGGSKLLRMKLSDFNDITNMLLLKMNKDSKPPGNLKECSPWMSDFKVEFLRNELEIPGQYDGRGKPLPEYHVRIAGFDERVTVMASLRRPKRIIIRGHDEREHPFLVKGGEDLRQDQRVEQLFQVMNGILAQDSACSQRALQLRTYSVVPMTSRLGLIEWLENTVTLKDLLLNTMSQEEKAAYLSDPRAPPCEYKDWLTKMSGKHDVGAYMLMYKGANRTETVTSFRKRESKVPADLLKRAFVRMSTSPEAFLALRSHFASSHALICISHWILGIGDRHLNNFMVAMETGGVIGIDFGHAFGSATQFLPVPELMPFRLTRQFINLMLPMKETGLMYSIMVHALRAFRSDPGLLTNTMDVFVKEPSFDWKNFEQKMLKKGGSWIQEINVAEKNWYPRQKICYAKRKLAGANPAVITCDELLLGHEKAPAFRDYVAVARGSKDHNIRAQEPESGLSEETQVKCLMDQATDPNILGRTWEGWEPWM
UniProt O00592: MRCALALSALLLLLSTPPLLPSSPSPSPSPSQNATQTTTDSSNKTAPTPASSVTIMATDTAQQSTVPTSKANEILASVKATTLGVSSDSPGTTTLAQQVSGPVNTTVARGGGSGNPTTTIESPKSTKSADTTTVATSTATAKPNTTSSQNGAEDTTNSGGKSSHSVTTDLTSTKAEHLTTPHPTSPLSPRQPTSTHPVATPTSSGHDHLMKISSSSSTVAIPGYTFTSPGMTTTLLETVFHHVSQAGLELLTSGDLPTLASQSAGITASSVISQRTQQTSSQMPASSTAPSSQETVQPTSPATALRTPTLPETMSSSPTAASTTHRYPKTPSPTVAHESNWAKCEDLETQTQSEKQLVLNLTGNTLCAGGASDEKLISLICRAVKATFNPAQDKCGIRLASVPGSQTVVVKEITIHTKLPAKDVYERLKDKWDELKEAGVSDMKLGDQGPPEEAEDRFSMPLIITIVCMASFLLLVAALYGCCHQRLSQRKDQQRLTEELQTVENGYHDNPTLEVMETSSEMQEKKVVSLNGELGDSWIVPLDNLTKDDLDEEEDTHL
UniProt Q13526, whole entry: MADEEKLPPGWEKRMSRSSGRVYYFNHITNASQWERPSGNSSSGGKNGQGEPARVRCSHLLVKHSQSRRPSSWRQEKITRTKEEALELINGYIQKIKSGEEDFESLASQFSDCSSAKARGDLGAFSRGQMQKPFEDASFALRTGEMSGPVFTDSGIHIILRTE
UniProt P62937, whole entry, looked up: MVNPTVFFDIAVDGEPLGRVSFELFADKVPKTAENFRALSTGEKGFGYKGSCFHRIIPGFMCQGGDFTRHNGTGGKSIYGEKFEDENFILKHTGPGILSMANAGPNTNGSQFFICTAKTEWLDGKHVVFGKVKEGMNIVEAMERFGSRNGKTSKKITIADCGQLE
UniProt P35813: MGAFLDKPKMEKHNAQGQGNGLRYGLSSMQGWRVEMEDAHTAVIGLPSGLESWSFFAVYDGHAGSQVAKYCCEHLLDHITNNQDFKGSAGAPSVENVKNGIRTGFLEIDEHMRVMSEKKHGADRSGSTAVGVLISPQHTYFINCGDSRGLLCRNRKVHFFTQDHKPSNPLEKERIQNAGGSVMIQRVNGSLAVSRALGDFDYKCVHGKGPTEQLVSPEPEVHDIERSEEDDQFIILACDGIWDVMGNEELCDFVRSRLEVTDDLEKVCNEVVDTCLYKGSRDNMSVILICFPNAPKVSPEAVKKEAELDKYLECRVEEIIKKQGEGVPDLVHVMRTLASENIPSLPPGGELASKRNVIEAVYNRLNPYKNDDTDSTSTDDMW

The list shows a part of the results.

Compound in the assay: COc1ccc(Cn2ccc3ccc(C(=O)NO)cc32)cc1
Kind of assay: dose-dependent thermal stabilisation call (2D-TPP, DLPTP, 10% FDR) (binary (1 = stabilised)); higher = stabilised by the compound. To be noted: system: HL-60 intact cells; concentration range 0.04-10 µM.
For PRDX6 (UniProt P30041), the “dose-dependent thermal stabilisation call” value was inactive: 0.
With PGRMC1 (UniProt O00264), the “dose-dependent thermal stabilisation call” value was inactive: 0.
Consider PPP2R5C (UniProt Q13362), for which the “dose-dependent thermal stabilisation call” value was inactive: 0.
The result for PLOD1 (UniProt Q02809) reads inactive: 0.
The result for PPP1CC (UniProt P36873) reads inactive: 0; that for PIK3CD (UniProt O00329), inactive: 0; that for PLCB3 (UniProt Q01970), inactive: 0.
The result for PPP1CA (UniProt P62136) reads inactive: 0; that for PRKCB (UniProt P05771), inactive: 0; that for PLRG1 (UniProt O43660), inactive: 0.
Regarding PREPL (UniProt Q4J6C6), the “dose-dependent thermal stabilisation call” value is inactive: 0.
For PRKDC (UniProt P78527), the “dose-dependent thermal stabilisation call” value is inactive: 0.
As for PLAA (UniProt Q9Y263), the “dose-dependent thermal stabilisation call” value was inactive: 0.
The result for PRDM10 (UniProt Q9NQV6) reads inactive: 0; that for PODXL (UniProt O00592), inactive: 0; that for PHACTR4 (UniProt Q8IZ21), inactive: 0.
As for PIN1 (UniProt Q13526), the “dose-dependent thermal stabilisation call” value was inactive: 0.
Take PM20D2 (UniProt Q8IYS1): the “dose-dependent thermal stabilisation call” value was inactive: 0.
For PIGG (UniProt Q5H8A4) the value was inactive: 0; for PPIA (UniProt P62937), inactive: 0; for POLR1B (UniProt Q9H9Y6), inactive: 0.
In the case of PRKD2 (UniProt Q9BZL6), the “dose-dependent thermal stabilisation call” value is inactive: 0.
For PLEKHG4 (UniProt Q58EX7) the value was inactive: 0.
For PPM1H (UniProt Q9ULR3), the “dose-dependent thermal stabilisation call” value is inactive: 0.
For PPP4R2 (UniProt Q9NY27), the “dose-dependent thermal stabilisation call” value is inactive: 0.
On to PPM1A (UniProt P35813), for which the “dose-dependent thermal stabilisation call” value was inactive: 0.
On to PPIL3 (UniProt Q9H2H8), for which the “dose-dependent thermal stabilisation call” value was inactive: 0.
